Results as given in the supplement of paper PMC6078165.
Values are relative to the signal before dosing, not to a vehicle control; the signal also falls without drug.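 Cells used are triple-negative breast cancer lines, either basal-like or mesenchymal-like, grown in the absence of fibroblasts. Lower red signal means mitochondrial integrity is lost, a surrogate for apoptosis.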

How the values were obtained:
Test in all cases: relative JC-1 red fluorescence (viability) vs pre-drug, monoculture (fraction); higher = more viable cancer cells
Details in all cases: coculture fibroblast: none (monoculture)
[1] = test system: BT20
Protocol: (§1)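 JC-1 labelled TNBC cells grown in monoculture (density kept equal with unlabelled cancer cells) in 384-well plates in FluoroBrite medium, treated with one of 42 anticancer drugs at 0.1, 1, 10 or 100 uM. JC-1 red fluorescence (mitochondrial integrity, surrogate of apoptotic death) was read by plate reader every 8 h for 72 h. Values are normalised to each well's pre-drug value, with background from alamethicin. The stock of one drug was tenfold lower, so its dose labels may be too high. Monoculture values are repeated alongside each fibroblast plate and are averaged here.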

[2] = test system: MDAMB468
Protocol: as §1

[3] = test system: MDAMB436
Protocol: as §1

[4] = test system: MDAMB231
Protocol: as §1

CC(C)C[C@H](NC(=O)[C@H](Cc1ccccc1)NC(=O)c1cnccn1)B(O)O [Bortezomib]
relative JC-1 red fluorescence
Details | 8 h | 16 h | 24 h | 32 h | 40 h | 48 h | 56 h | 64 h | 72 h
[1], 0.1 µM | 0.935 | 0.879 | 0.899 | 0.827 | 0.808 | 0.816 | 0.815 | 0.811 | 0.831
[1], 1 µM | 0.909 | 0.82 | 0.664 | 0.533 | 0.429 | 0.386 | 0.336 | 0.321 | 0.312
[1], 10 µM | 0.942 | 0.758 | 0.675 | 0.486 | 0.413 | 0.399 | 0.376 | 0.37 | 0.378
[1], 100 µM | 0.934 | 0.882 | 0.769 | 0.6083 | 0.536 | 0.487 | 0.442 | 0.423 | 0.413
[2], 0.1 µM | 0.782 | 0.726 | 0.759 | 0.758 | 0.748 | 0.7907 | 0.7664 | 0.77463 | 0.795
[2], 1 µM | 0.856 | 0.757 | 0.675 | 0.569 | 0.526 | 0.51 | 0.483 | 0.476 | 0.465
[2], 10 µM | 0.815 | 0.553 | 0.44837 | 0.368 | 0.316 | 0.319 | 0.298 | 0.295 | 0.294
[2], 100 µM | 0.886 | 0.815 | 0.696 | 0.5857 | 0.5397 | 0.521 | 0.497 | 0.487 | 0.478
[3], 0.1 µM | 0.837 | 0.818 | 0.777 | 0.774 | 0.839 | 0.812 | 0.887 | 0.821 | 0.792
[3], 1 µM | 0.82 | 0.7858 | 0.767 | 0.707 | 0.657 | 0.645 | 0.636 | 0.633 | 0.627
[3], 10 µM | 0.9211 | 0.8416 | 0.8886 | 0.8661 | 0.9002 | 0.925 | 0.939 | 0.957 | 0.966
[3], 100 µM | 0.9137 | 0.8486 | 0.786 | 0.744 | 0.72 | 0.715 | 0.708 | 0.706 | 0.694
[4], 0.1 µM | 0.81 | 0.78 | 0.901 | 0.784 | 0.8216 | 0.845 | 0.8595 | 0.85 | 0.9375
[4], 1 µM | 0.83 | 0.7266 | 0.817 | 0.663 | 0.781 | 0.762 | 0.719 | 0.741 | 0.741
[4], 10 µM | 0.909 | 0.775 | 0.9229 | 0.788 | 0.733 | 0.865 | 0.816 | 0.812 | 0.8237
[4], 100 µM | 0.799 | 0.747 | 0.624 | 0.586 | 0.535 | 0.528 | 0.49 | 0.505 | 0.498

CC[C@]1(O)C[C@@H]2CN(CCc3c([nH]c4ccccc34)[C@@](C(=O)OC)(c3cc4c(cc3OC)N(C)[C@H]3[C@@](O)(C(=O)OC)[C@H](OC(C)=O)[C@]5(CC)C=CCN6CC[C@]43[C@@H]65)C2)C1 [Vinblastine]
relative JC-1 red fluorescence
Details | 8 h | 16 h | 24 h | 32 h | 40 h | 48 h | 56 h | 64 h | 72 h
[1], 0.1 µM | 0.957 | 0.875 | 0.841 | 0.777 | 0.748 | 0.717 | 0.691 | 0.673 | 0.658
[1], 1 µM | 0.9345 | 0.8752 | 0.8086 | 0.7303 | 0.688 | 0.666 | 0.628 | 0.604 | 0.581
[1], 10 µM | 0.913 | 0.8598 | 0.824 | 0.767 | 0.715 | 0.689 | 0.6541 | 0.637 | 0.613
[1], 100 µM | 0.719 | 0.449 | 0.234 | 0.15 | 0.111 | 0.0883 | 0.0673 | 0.0524 | 0.0385
[2], 0.1 µM | 0.9179 | 0.836 | 0.789 | 0.703 | 0.647 | 0.615 | 0.565 | 0.539 | 0.522
[2], 1 µM | 0.9026 | 0.856 | 0.826 | 0.7793 | 0.7486 | 0.7328 | 0.706 | 0.692 | 0.679
[2], 10 µM | 0.8829 | 0.819 | 0.8007 | 0.731 | 0.697 | 0.661 | 0.613 | 0.585 | 0.552
[2], 100 µM | 0.657 | 0.277 | 0.0962 | 0.0439 | 0.0221 | 0.0366 | 0.0149 | 0.0263 | 0.0228
[3], 0.1 µM | 0.869 | 0.751 | 0.783 | 0.734 | 0.715 | 0.712 | 0.712 | 0.717 | 0.728
[3], 1 µM | 0.8484 | 0.751 | 0.788 | 0.7535 | 0.731 | 0.711 | 0.699 | 0.689 | 0.677
[3], 10 µM | 0.831 | 0.781 | 0.778 | 0.718 | 0.685 | 0.656 | 0.617 | 0.587 | 0.572
[3], 100 µM | 0.742 | 0.658 | 0.554 | 0.389 | 0.282 | 0.22 | 0.193 | 0.17109 | 0.1531
[4], 0.1 µM | 0.781 | 0.6841 | 0.6955 | 0.633 | 0.604 | 0.594 | 0.578 | 0.6127 | 0.6228
[4], 1 µM | 0.733 | 0.6851 | 0.634 | 0.58 | 0.548 | 0.533 | 0.514 | 0.537 | 0.536
[4], 10 µM | 0.688 | 0.708 | 0.655 | 0.675 | 0.628 | 0.6 | 0.567 | 0.562 | 0.533
[4], 100 µM | 0.635 | 0.552 | 0.316 | 0.205 | 0.143 | 0.108 | 0.0971 | 0.108 | 0.1
